{"source": "PubChem BioAssay AID652272 – Drosophila RNAi Screening Center | 2013", "assay": "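Genome-wide knock-down search for components of Hedgehog signalling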 (primary screen)", "cells": "Drosophila clone 8 (Cl8) cells", "knock-down reagent": "long dsRNA against Drosophila genes", "read-out": "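Plate reader light from a firefly reporter under a ptc promoter fragment that responds to Hedgehog, with Renilla light as transfection reference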", "direction": "firefly Hh reporter signal: higher = more ptc reporter light; Renilla reference signal: higher = more Renilla control light", "hit rule": "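Hit when the z-score averaged over two replicates is under -2 or over +3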", "calls": "active = hit: reporter lowered or raised; inactive = not a hit", "note": "The deposit covers about 21,000 reagents; below is an unselected part of those with a known target gene and a result. Of all reagents, 503 (2.4%) were called active. 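Raw plate light values, not normalised; calls rest on replicate z-scores that were not deposited; hits include reporter decreases as well as increases.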 Reagents against one gene are numbered here. Not stated in the record: the amount of reagent, the time to read-out."}
The opening 2 records as a preview:
{"gene knocked down": "Pect", "reagent no.": 1, "firefly Hh reporter signal, replicate 1": 1.05e5, "firefly Hh reporter signal, replicate 2": 1.02e5, "Renilla reference signal, replicate 1": 3808, "Renilla reference signal, replicate 2": 3776, "Outcome": "inactive"}
{"gene knocked down": "Pect", "reagent no.": 2, "firefly Hh reporter signal, replicate 1": 91498, "firefly Hh reporter signal, replicate 2": 50848, "Renilla reference signal, replicate 1": 2731, "Renilla reference signal, replicate 2": 4349, "Outcome": "inactive"}

Results, repeating the preview:
{"gene knocked down": "Pect", "reagent no.": 1, "firefly Hh reporter signal, replicate 1": 1.05e5, "firefly Hh reporter signal, replicate 2": 1.02e5, "Renilla reference signal, replicate 1": 3808, "Renilla reference signal, replicate 2": 3776, "Outcome": "inactive"}
{"gene knocked down": "Pect", "reagent no.": 2, "firefly Hh reporter signal, replicate 1": 91498, "firefly Hh reporter signal, replicate 2": 50848, "Renilla reference signal, replicate 1": 2731, "Renilla reference signal, replicate 2": 4349, "Outcome": "inactive"}
{"gene knocked down": "Tpst", "reagent no.": 1, "firefly Hh reporter signal, replicate 1": 5.96e5, "firefly Hh reporter signal, replicate 2": 2.09e5, "Renilla reference signal, replicate 1": 32201, "Renilla reference signal, replicate 2": 5425, "Outcome": "inactive"}
{"gene knocked down": "Tpst", "reagent no.": 2, "firefly Hh reporter signal, replicate 1": 1.17e5, "firefly Hh reporter signal, replicate 2": 3.02e5, "Renilla reference signal, replicate 1": 1232, "Renilla reference signal, replicate 2": 12349, "Outcome": "inactive"}
{"gene knocked down": "Tpst", "reagent no.": 3, "firefly Hh reporter signal, replicate 1": 1.83e5, "firefly Hh reporter signal, replicate 2": 64077, "Renilla reference signal, replicate 1": 10448, "Renilla reference signal, replicate 2": 1648, "Outcome": "inactive"}
{"gene knocked down": "Tpst", "reagent no.": 4, "firefly Hh reporter signal, replicate 1": 1.16e5, "firefly Hh reporter signal, replicate 2": 1.43e5, "Renilla reference signal, replicate 1": 3658, "Renilla reference signal, replicate 2": 5840, "Outcome": "inactive"}
{"gene knocked down": "CG6769", "reagent no.": 1, "firefly Hh reporter signal, replicate 1": 93440, "firefly Hh reporter signal, replicate 2": 86920, "Renilla reference signal, replicate 1": 2240, "Renilla reference signal, replicate 2": 2231, "Outcome": "inactive"}
{"gene knocked down": "AhcyL2", "reagent no.": 1, "firefly Hh reporter signal, replicate 1": 64208, "firefly Hh reporter signal, replicate 2": 74615, "Renilla reference signal, replicate 1": 1480, "Renilla reference signal, replicate 2": 2032, "Outcome": "inactive"}
{"gene knocked down": "CG8814", "reagent no.": 1, "firefly Hh reporter signal, replicate 1": 98425, "firefly Hh reporter signal, replicate 2": 80018, "Renilla reference signal, replicate 1": 4160, "Renilla reference signal, replicate 2": 3899, "Outcome": "inactive"}
{"gene knocked down": "jv", "reagent no.": 1, "firefly Hh reporter signal, replicate 1": 73770, "firefly Hh reporter signal, replicate 2": 1.81e5, "Renilla reference signal, replicate 1": 1991, "Renilla reference signal, replicate 2": 8087, "Outcome": "inactive"}
{"gene knocked down": "jv", "reagent no.": 2, "firefly Hh reporter signal, replicate 1": 1.10e5, "firefly Hh reporter signal, replicate 2": 2.24e5, "Renilla reference signal, replicate 1": 3094, "Renilla reference signal, replicate 2": 9355, "Outcome": "inactive"}
{"gene knocked down": "lama", "reagent no.": 1, "firefly Hh reporter signal, replicate 1": 1.05e5, "firefly Hh reporter signal, replicate 2": 33501, "Renilla reference signal, replicate 1": 4448, "Renilla reference signal, replicate 2": 1458, "Outcome": "inactive"}
